# PubChem BioAssay AID1259327, Drosophila RNAi Screening Center, 2017
# Screen: 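Data from controls in screens of zinc and manganese toxicity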
# Cells: Drosophila S2R+ cells
# Reagents: long dsRNA against Drosophila genes
# Time to read-out: 5 days (water added on day 4, read one day later)
# Treatment: water added as vehicle, no metal, one day before read-out
# Measured: 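Total ATP measured by luciferase light, scaled to plate mean, duplicates averaged, then z-scored across plates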
# Scale: ATP z-score: higher = more total ATP than typical wells; ATP luminescence: higher = more total ATP
# Rule for the call: 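Called active when the ATP z-score exceeds 1.5 or falls below -1.5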
# Meaning of the calls: active = hit: ATP up or down; inactive = no clear ATP change
# Here is a random part of about 3,100 reagents tested. In the full data, 378 (12%) were called active. 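Hits include both directions; z-score sign shows ATP rise or fall; raw luminescence values are not plate-normalised.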 Entries without a mark were called inactive. Reagent sequences are not shown. Not given: the amount of reagent.
The first 5 records, ahead of the listing:
Target gene,dsRNA,"ATP z-score, duplicate mean","ATP luminescence, replicate 1 (RLU)","ATP luminescence, replicate 2 (RLU)"
Elovl7 (ELOVL fatty acid elongase 7),DRSC15452,0.272,3.12e5,7.89e5
Elovl7 (ELOVL fatty acid elongase 7),DRSC21570,4.33 (active),9.47e5,9.46e5
Elovl7 (ELOVL fatty acid elongase 7),DRSC25259,0.0659,8.52e5,8.11e5
CG11438,DRSC11660,-0.0864,9.12e5,8.58e5
CG11438,DRSC36909,0.893,5.92e5,7.20e5

Main list, from the first entry:
Target gene,dsRNA,"ATP z-score, duplicate mean","ATP luminescence, replicate 1 (RLU)","ATP luminescence, replicate 2 (RLU)"
Elovl7 (ELOVL fatty acid elongase 7),DRSC15452,0.272,3.12e5,7.89e5
Elovl7 (ELOVL fatty acid elongase 7),DRSC21570,4.33 (active),9.47e5,9.46e5
Elovl7 (ELOVL fatty acid elongase 7),DRSC25259,0.0659,8.52e5,8.11e5
CG11438,DRSC11660,-0.0864,9.12e5,8.58e5
CG11438,DRSC36909,0.893,5.92e5,7.20e5
CG13796,DRSC24686,0.405,8.09e5,9.06e5
CG33310,DRSC01897,-0.366,6.84e5,6.90e5
CG33310,DRSC24914,0.635,9.13e5,8.86e5
Rh2 (Rhodopsin 2),DRSC16821,-0.576,2.93e5,6.48e5
Rh2 (Rhodopsin 2),DRSC25598,-0.501,7.42e5,8.34e5
OtopLc (Otopetrin-like c),DRSC18132,0.533,7.50e5,6.95e5
OtopLc (Otopetrin-like c),DRSC25756,-0.914,7.14e5,7.12e5
Tsp42Ep (Tetraspanin 42Ep),DRSC06871,-0.3,6.52e5,6.97e5
Start1,DRSC04384,0.182,7.49e5,7.51e5
Start1,DRSC28343,-1.46,7.10e5,5.89e5
"mAChR-A (muscarinic Acetylcholine Receptor, A-type)",DRSC28262,-0.952,7.25e5,6.93e5
"Alg10 (ALG10 alpha-1,2-glucosyltransferase)",DRSC10892,0.614,9.76e5,9.76e5
"Alg10 (ALG10 alpha-1,2-glucosyltransferase)",DRSC39451,-0.692,4.41e5,3.75e5
ru (roughoid),DRSC08258,-0.509,4.81e5,6.67e5
ru (roughoid),DRSC28529,-0.0757,8.84e5,7.50e5
"Sr-CIII (Scavenger receptor class C, type III)",DRSC22262,-0.324,7.98e5,8.22e5
app (approximated),DRSC09159,-0.392,6.51e5,7.52e5
app (approximated),DRSC25682,-0.96,7.50e5,7.12e5
xit (xiantuan),DRSC18364,0.221,7.44e5,7.14e5
xit (xiantuan),DRSC39724,0.106,4.82e5,4.62e5
CG6282,DRSC29524,-0.541,7.84e5,7.34e5
CG42685,DRSC01971,0.45,7.86e5,7.62e5
CG42685,DRSC39526,0.492,4.20e5,5.47e5
Osi13 (Osiris 13),DRSC12281,-0.0815,9.06e5,8.65e5
CCKLR-17D3 (Cholecystokinin-like receptor at 17D3),DRSC20017,-0.0309,7.15e5,7.64e5
CCKLR-17D3 (Cholecystokinin-like receptor at 17D3),DRSC23715,0.352,7.93e5,9.96e5
CG14691,DRSC14914,-1.43,2.32e5,6.14e5
CG14691,DRSC27957,1.02,7.42e5,8.67e5
Ir75b (Ionotropic receptor 75b),DRSC10189,0.707,1.04e6,9.38e5
Picot,DRSC07508,0.387,7.93e5,7.51e5
Picot,DRSC24256,-0.0989,8.14e5,8.62e5
Gle1 (Gle1 RNA export mediator),DRSC06485,0.908,8.10e5,8.46e5
Gle1 (Gle1 RNA export mediator),DRSC29960,-1.15,4.54e5,5.10e5
Rdl (Resistant to dieldrin),DRSC11264,0.465,7.80e5,7.81e5
Rdl (Resistant to dieldrin),DRSC27696,0.709,9.77e5,8.73e5
Oatp74D (Organic anion transporting polypeptide 74D),DRSC09491,0.336,5.71e5,8.20e5
Oatp74D (Organic anion transporting polypeptide 74D),DRSC10883,-0.711,6.84e5,6.25e5
Ser (Serrate),DRSC16856,-1.05,5.33e5,7.08e5
Ser (Serrate),DRSC25494,0.267,9.83e5,7.83e5
Tsp39D (Tetraspanin 39D),DRSC03099,0.081,7.95e5,6.76e5
Nup93-2 (Nucleoporin 93kD-2),DRSC16221,0.589,8.27e5,7.08e5
fbl (fumble),DRSC11886,-0.741,8.34e5,7.65e5
fbl (fumble),DRSC27922,1.54 (active),9.35e5,1.07e6
CG14440,DRSC23008,-0.0717,5.84e5,5.63e5
CG14440,DRSC25806,0.267,9.27e5,8.39e5
yin,DRSC21889,0.279,6.33e5,5.73e5
yin,DRSC39804,1.52 (active),5.91e5,5.79e5
GABPI (beta4GalNAcTB pilot),DRSC00494,1.41,5.25e5,6.35e5
GABPI (beta4GalNAcTB pilot),DRSC27495,1.06,1.06e6,1.03e6
Ir68b (Ionotropic receptor 68b),DRSC10251,2.01 (active),1.22e6,1.10e6
Ir68b (Ionotropic receptor 68b),DRSC39424,0.291,5.07e5,4.40e5
phtf,DRSC05023,0.462,7.51e5,8.11e5
phtf,DRSC28441,0.39,8.92e5,8.49e5
CG30047,DRSC05340,0.484,7.06e5,8.90e5
meigo (medial glomeruli),DRSC15877,0.276,3.26e5,7.55e5
meigo (medial glomeruli),DRSC25836,0.332,9.49e5,8.33e5
PIG-O (Phosphatidylinositol glycan anchor biosynthesis class O),DRSC06123,0.593,7.69e5,8.20e5
PIG-O (Phosphatidylinositol glycan anchor biosynthesis class O),DRSC39439,0.771,5.63e5,4.48e5
glec (gliolectin),DRSC16958,-1.79 (active),2.24e5,5.53e5
glec (gliolectin),DRSC25314,-0.436,7.12e5,8.81e5
CG7530,DRSC25476,-0.687,7.86e5,7.43e5
CG7530,DRSC39584,-0.139,4.82e5,4.29e5
CG4025,DRSC18523,1.31,7.40e5,8.69e5
